The target of assay [1] is T1, GST-HpaB_(111-160) (Xanthomonas campestris pv. campestris) (UniProt B0RX82).
T1 sequence: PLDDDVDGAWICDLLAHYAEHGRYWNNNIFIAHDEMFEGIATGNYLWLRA
Put plainly: pull-down; chaperone release assay: GST-fused HpaB derivatives immobilised on MagneGST particles, incubated with 6×His-tagged T3E to form the complex, unbound protein removed; then 1 h at room temperature with 150 μM ATP, with or without 1 μg purified 6×His-HrcN; supernatant and particles immunoblotted.

Assay [2] concerns the target GST-HpaB_(1-136) (Xanthomonas campestris pv. campestris). The description is as above.

These are yes or no findings as the source states them, for the method shown. Binding seen in cells or lysates may run through a third protein. Binding calls can cover weak binding; strength is not graded here. Tags and fused reporters may be left off the sequences shown.

The values that follow come from publication PMC7842900.

Consider “6×His-XC3176 (Xanthomonas campestris pv. campestris)”, for which the binding entry in assay [1] was “binds”.

B1: 6×His-AvrAC (protein, UniProt Q4UWF4 1-536)
chain: MDKNLNLWDMSTFIQQYGALTADHPTHTPEDSPQTVPSPRSSSAHSPEIQELRSLQETRPARLGARSQSRSSKHGLQQCSSSPSDESFRLHAELAAWCERVETKPSLLAKLGCCAAPPVVGDHREQRREAMERIMRCLDAGQAGTQLTLRDLNLSQLPPGLHRLAHLRDLDVADNVNLTRLPEDLSLCKHLERINADGCSIAALPSKIGALKNLSEISLAFNELRTLPDSIGQCSSLTTIVVPGCKINKLPASLANLTQLKKLDVAANIELSELSPHMNLDDVAVHSTQTRLGLMHRIFKAPTFDPETRQRLSYQASALRDRWAALSHHLSPQARARVDQMREGASTTLSSQDHKASTAWKTATEKVSSWAEEGAPITLDRIFKLNQLLLPEGDDDNDPIGGQLRKVGIQAAPSNTWTECRYPPPETLKDEMAKFSGWLEHSEQQAHARDALGHIEFAAQLHQRLVSLHPFDDANGRTARLAMDWALQRHGLPPAPPVGEASRLPASFLGGKRVSPEKVVLETLEGIATVMNQVHQ
Regarding B1, the binding entry in assay [2] is given as “binds”.
